Data on two substances can be found in article PMC3324470.

No constants are given. Whether binding was seen depends on the method and setting.

This assay addresses T1, GAMETOPHYTE … 1 (GAF1/AtRPP30) (Arabidopsis thaliana) (UniProt F4JXF1).
T1 sequence: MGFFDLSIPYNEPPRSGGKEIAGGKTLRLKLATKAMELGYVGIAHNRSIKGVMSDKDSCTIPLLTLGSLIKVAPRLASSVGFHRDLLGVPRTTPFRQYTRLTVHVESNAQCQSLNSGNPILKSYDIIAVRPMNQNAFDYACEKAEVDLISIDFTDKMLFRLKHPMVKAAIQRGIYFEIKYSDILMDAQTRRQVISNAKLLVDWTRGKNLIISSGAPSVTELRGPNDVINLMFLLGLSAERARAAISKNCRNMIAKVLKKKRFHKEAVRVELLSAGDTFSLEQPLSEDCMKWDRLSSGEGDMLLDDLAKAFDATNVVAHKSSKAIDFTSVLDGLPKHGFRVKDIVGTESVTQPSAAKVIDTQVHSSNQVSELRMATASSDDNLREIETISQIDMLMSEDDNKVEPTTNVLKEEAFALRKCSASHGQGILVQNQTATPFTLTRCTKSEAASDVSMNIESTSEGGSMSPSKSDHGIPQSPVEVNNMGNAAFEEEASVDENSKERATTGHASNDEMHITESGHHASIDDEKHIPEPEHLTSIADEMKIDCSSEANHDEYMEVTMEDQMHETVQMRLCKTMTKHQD
The experiment in a line: two-hybrid; pGADT7 and pGBKT7 constructs co-transformed in pairs into yeast AH109; cells adjusted to OD600=0.3, growth on SD/-Trp-Leu-His-Ade plates for 5 or 12 days at 28°C (SD/-Trp-Leu for 3 days as control).

With “AtRPR2 (Arabidopsis homologue of RNase P subunit RPR2)”, the binding entry is recorded as “no binding”.
With “AtRMP1 (Arabidopsis homologue of RNase MRP subunit RMP1)” the entry was “no binding”.
